The text below walks through data of article PMC10138427.

Assay [1] has as its target mouse NRP1 wild type with Flag (NRP1 WT), overexpressed in C3H10T1/2 cells (mouse) (UniProt P97333). Description: co-IP; lysates of ov-NRP1 WT (Flag) and ov-cont cells (C3H10T1/2 in control or differentiation medium; HEK 293T) incubated overnight at 4 °C with anti-Flag M2 affinity gel, washed five times, eluted with Flag peptide, blotted with anti-NRP1 and anti-JIP4.
Assay [2] addresses mouse NRP1 wild type with Flag (NRP1 WT), overexpressed in HEK 293T cells (mouse) (UniProt P97333). The assay is described as above.

No constants are given. Whether binding was seen depends on the method and setting. Binding seen in cells or lysates may run through a third protein. Some entries that bind do so weakly or less than the wild type.

B1: C-Jun N-terminal kinase (JNK)-interacting protein 4 (JIP4), endogenous in C3H10T1/2 cells (protein, UniProt Q58A65 1-1321)
chain: MELEDGVVYQEEPGGSGAVMSERVSGLAGSIYREFERLIGRYDEEVVKELMPLVVAVLENLDSVFAQDQEHQVELELLRDDNEQLITQYEREKALRKHAEEKFIEFEDSQEQEKKDLQTRVESLESQTRQLELKAKNYADQISRLEEREAELKKEYNALHQRHTEMIHNYMEHLERTKLHQLSGSDQLEATAHSRIRKERPISLGIFPLPAGDGLLTPDTQKGGETPGSEQWKFQELSQPRSHTSLKVSHSPEPPKAVEQEDELSDISQGGSKATTPASTANSDVSAIPPDTPSKEDNEGFVKGTDTSNKSEISKHIEVQVAQETRNVSTESGENEEKSEVQAIIESTPELDMDKDLSGYKGSSTPTKGIENKAFDRNTESLFEELSSAGSGLIGDVDEGADLLGMGREVENLILENTQLLETKNALNVVKNDLIAKVDELTCEKDVLQGELEAVKQAKLKLEDKNRELEEELRKARAEAEDARQKAKDDDDSDIPTAQRKRFTRVEMARVLMERNQYKERLMELQEAVRWTEMIRASRENPAMQEKKRSSIWQFFSRLFSSSSNATKKPEPPVNLKYNAPTSHVTPSVKKRSSTLSQLPGDKSKAFDFLSEETEASLASRREQKREQYRQVKAHVQKEDGRVQAFGWSLPQKYKQVANGQGETKMKNLPVPVYLRPLDEKDASMKLWCAVGVNLSGGKTRDGGSVVGASVFYKDIAGLDTEGSKQRSASQSSLDKLDQELKEQQKEFKNQEELSSQVWICTSTHSTTKVIIIDAVQPGNILDSFTVCNSHVLCIASVPGARETDYPAGEELSESGQVDKASLCGSMTSNSSAEMDSLLGGITVVGCSTEGLTGAATSPSTNGASPVIEKPPEMETENSEVDENIPTAEEATEATEGNAGSTEDTVDISQPGVYTEHVFTDPLGVQIPEDLSPVFQSSNDSDVYKDQISVLPNEQDLAREEAQKMSSLLPTMWLGAQNGCLYVHSSVAQWRKCLHSIKLKDSILSIVHVKGIVLVALADGTLAIFHRGVDGQWDLSNYHLLDLGRPHHSIRCMTVVHDKVWCGYRNKIYVVQPKAMKIEKSFDAHPRKESQVRQLAWVGDGVWVSIRLDSTLRLYHAHTYQHLQDVDIEPYVSKMLGTGKLGFSFVRITALMVSCNRLWVGTGNGVIISIPLTETNKTSGTPGNRPGSVIRVYGDENSDKVTPGTFIPYCSMAHAQLCFHGHRDAVKFFVAVPGQVISPQSSSGGADLTADKAGSSAQEPSSQTPLKSMLVISGGEGYIDFRMGDEGGESELLGEDLPLEPSVTKAERSHLIVWQVMCGNE
For the molecule B1, in assay [1], the binding result is “binds”.

B2: C-Jun N-terminal kinase (JNK)-interacting protein 4 (JIP4), endogenous in HEK 293T cells (protein, UniProt O60271 1-1321)
chain: MELEDGVVYQEEPGGSGAVMSERVSGLAGSIYREFERLIGRYDEEVVKELMPLVVAVLENLDSVFAQDQEHQVELELLRDDNEQLITQYEREKALRKHAEEKFIEFEDSQEQEKKDLQTRVESLESQTRQLELKAKNYADQISRLEEREAELKKEYNALHQRHTEMIHNYMEHLERTKLHQLSGSDQLESTAHSRIRKERPISLGIFPLPAGDGLLTPDAQKGGETPGSEQWKFQELSQPRSHTSLKVSNSPEPQKAVEQEDELSDVSQGGSKATTPASTANSDVATIPTDTPLKEENEGFVKVTDAPNKSEISKHIEVQVAQETRNVSTGSAENEEKSEVQAIIESTPELDMDKDLSGYKGSSTPTKGIENKAFDRNTESLFEELSSAGSGLIGDVDEGADLLGMGREVENLILENTQLLETKNALNIVKNDLIAKVDELTCEKDVLQGELEAVKQAKLKLEEKNRELEEELRKARAEAEDARQKAKDDDDSDIPTAQRKRFTRVEMARVLMERNQYKERLMELQEAVRWTEMIRASRENPAMQEKKRSSIWQFFSRLFSSSSNTTKKPEPPVNLKYNAPTSHVTPSVKKRSSTLSQLPGDKSKAFDFLSEETEASLASRREQKREQYRQVKAHVQKEDGRVQAFGWSLPQKYKQVTNGQGENKMKNLPVPVYLRPLDEKDTSMKLWCAVGVNLSGGKTRDGGSVVGASVFYKDVAGLDTEGSKQRSASQSSLDKLDQELKEQQKELKNQEELSSLVWICTSTHSATKVLIIDAVQPGNILDSFTVCNSHVLCIASVPGARETDYPAGEDLSESGQVDKASLCGSMTSNSSAETDSLLGGITVVGCSAEGVTGAATSPSTNGASPVMDKPPEMEAENSEVDENVPTAEEATEATEGNAGSAEDTVDISQTGVYTEHVFTDPLGVQIPEDLSPVYQSSNDSDAYKDQISVLPNEQDLVREEAQKMSSLLPTMWLGAQNGCLYVHSSVAQWRKCLHSIKLKDSILSIVHVKGIVLVALADGTLAIFHRGVDGQWDLSNYHLLDLGRPHHSIRCMTVVHDKVWCGYRNKIYVVQPKAMKIEKSFDAHPRKESQVRQLAWVGDGVWVSIRLDSTLRLYHAHTYQHLQDVDIEPYVSKMLGTGKLGFSFVRITALMVSCNRLWVGTGNGVIISIPLTETNKTSGVPGNRPGSVIRVYGDENSDKVTPGTFIPYCSMAHAQLCFHGHRDAVKFFVAVPGQVISPQSSSSGTDLTGDKAGPSAQEPGSQTPLKSMLVISGGEGYIDFRMGDEGGESELLGEDLPLEPSVTKAERSHLIVWQVMYGNE
As for B2, the binding result in assay [2] is reported as “binds”.
